Measured values as given in the supplement of paper PMC3334620.
Whole data set: some 33,000 sequences, median “E-score (-0.5 to 0.5)” near -0.016, cut for the highest 2% near 0.3. The list shows a part of the results.

The sequences below were run against T1, Yer184c (UniProt P39961) (assay: PBM E-score (8-mer binding enrichment) (E-score (-0.5 to 0.5)); higher = stronger / more preferred TF binding). Details: protein concentration: 100 nM; construct: GST-full length.
T1 sequence: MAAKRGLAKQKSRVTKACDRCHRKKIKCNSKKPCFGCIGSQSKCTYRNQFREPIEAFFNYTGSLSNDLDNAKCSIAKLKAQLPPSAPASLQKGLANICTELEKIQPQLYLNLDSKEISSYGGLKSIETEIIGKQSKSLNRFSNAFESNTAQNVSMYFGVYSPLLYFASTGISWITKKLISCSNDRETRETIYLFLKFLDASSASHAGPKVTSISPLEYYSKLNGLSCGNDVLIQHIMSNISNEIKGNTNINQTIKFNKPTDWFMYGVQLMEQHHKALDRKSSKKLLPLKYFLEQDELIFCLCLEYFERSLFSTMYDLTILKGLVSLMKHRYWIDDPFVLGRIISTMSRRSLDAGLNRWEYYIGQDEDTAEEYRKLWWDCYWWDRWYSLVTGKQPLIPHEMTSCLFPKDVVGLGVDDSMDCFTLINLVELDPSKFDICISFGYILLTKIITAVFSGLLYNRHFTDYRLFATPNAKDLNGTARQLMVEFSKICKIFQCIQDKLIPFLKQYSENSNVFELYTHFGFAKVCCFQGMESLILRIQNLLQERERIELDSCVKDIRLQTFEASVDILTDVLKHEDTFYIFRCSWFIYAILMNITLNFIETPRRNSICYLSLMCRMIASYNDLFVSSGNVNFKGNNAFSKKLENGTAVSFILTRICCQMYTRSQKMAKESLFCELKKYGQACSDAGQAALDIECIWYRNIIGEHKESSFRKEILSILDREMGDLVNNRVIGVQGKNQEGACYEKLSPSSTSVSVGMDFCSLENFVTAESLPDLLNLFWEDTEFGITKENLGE
How it was run: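 Yeast transcription factors carrying a GST tag, as full-length proteins or DNA-binding domains, were produced by PURExpress in vitro transcription/translation. About 100-200 nM protein was applied to universal all-10-mer Agilent arrays, double-stranded by primer extension on fresh or once-stripped slides. Bound protein was detected with fluorescent anti-GST, and scans were normalised with masliner. The Universal PBM Analysis Suite gave each ungapped eight-base word, pooled with its reverse complement, an E-score, a modified Wilcoxon-Mann-Whitney statistic.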

Sequence	PBM E-score
ATAGATAA	0.15
CACTGTAG	0.172
CCTAACGC	-0.00278
AGCTGAAT	-0.0898
CATCAGTA	-0.0984
CACTGTTA	-0.176
CGTTCCTC	0.0805
AACCGAGG	0.0141
ACCGCTGC	-0.188
CATTGTAA	-0.0458
ACGACTCC	-0.102
CATCATGA	-0.0238
AACCGCAG	-0.0887
ATAACTTA	0.157
CCCCGCCG	-0.0767
GAGTTGTA	0.143
CATTAACA	0.0428
CGACTGAG	-0.107
AGTGGAAT	-0.0073
CCACGCAC	0.0441
ATATGGTC	-0.00957
ATCTGCCA	-0.0702
CTCGCTTA	0.0271
AAATTGTT	0.16
ACAGCTGC	-0.0321

Sequence	PBM E-score
ATGATTGA	0.0273
ATAACCTG	-0.208
GGAGGGCC	-0.308
CTGACCTA	-0.14
ACCACACA	0.00327
AGCTATGC	-0.239
CAATGGCA	-0.078
CTACTTAC	-0.0111
CATCTGAC	-0.183
AATTCTGT	0.099
AACAATTA	0.261
GGTGGGAC	-0.349
GCCGAACC	0.323
AACTATCC	0.025
CGATCGAA	0.0725
ATGGCGCA	-0.0903
AATCCGCG	0.163
ACTATTTA	0.231
CACATAGC	-0.0851
GAGTAGTA	0.0836
CCAGTACC	-0.236
CCTACCCG	-0.00507
AGCCGGGG	0.0566
GCGTTTCA	0.0673
GGTGTCCA	-0.0634

Sequence	PBM E-score
ACTGAAAG	0.105
CCAGCGTA	-0.0152
CCCTTGGA	-0.0497
ATTACACC	0.0279
CTACGCAC	-0.0922
CGTTACAC	0.0665
GAAGCTTC	0.0597
CCGAGGTA	0.0952
GGCATCCA	-0.179
GAATTCAA	0.251
GGTTAGCA	-0.107
AAAAATGC	0.143
CAAAGTCA	0.0372
AGATGCAC	-0.348
CTATTCGA	-0.0207
CTTGCCGC	0.0967
GCTCCGAA	0.298
AGTATTCC	0.166
CAGCACTA	-0.097
GGAGCCGA	0.177
CCCAGTTC	0.0635
AAGTATTG	-0.0329
TATTTGCA	0.104
TGTCCACA	-0.00412
ACACTGAT	-0.125

Sequence	PBM E-score
GTGTTTGA	0.15
GAACGGAC	0.082
AAGCATTG	-0.231
AAGGGTAC	-0.138
AACAAGTG	0.00907
AGGAGATC	0.05
AGCCTTAA	0.0753
GTGGAGCA	0.0109
AATCTTCA	0.196
CGACCCAC	-0.0723
AGGAAGCC	0.03
ATGAGCAC	-0.0939
ACGTGAAG	-0.104
CCACGTAC	-0.342
CAGCGAGA	-0.165
AGCTATAA	-0.0676
CGGGGAAG	0.0845
GATCCAGC	-0.207
ATTCTGGC	0.0115
AAAGAAAC	0.264
AAAAATCC	0.0959
ATCCACCC	-0.274
TCAGTGAA	-0.0744
ACCTGGCG	-0.268
CCATGATC	-0.197

Sequence	PBM E-score
GGCCTAAC	0.0745
CAACTGCC	0.0774
GCTAGGGA	-0.213
CCAAGACC	-0.163
AGATATAA	0.157
ATCGTTCA	0.0333
CTTTTTCA	0.0208
CTAAAGAC	-0.119
ACTGATTG	-0.137
AACCTATT	-0.139
AGGGAACG	-0.0901
CCCTAAGA	-0.228
GAGTAAAC	0.0603
ATTACGTA	0.113
GTTAGAAC	-0.0333
AGCTCGGG	0.138
AATCAGTA	0.00154
GCGATGTA	-0.0966
AGTCTGTG	-0.0884
ACCTCTGC	-0.24
GGACGTGA	-0.265
AGTACCAG	0.0281
AATGCTTC	0.055
TAACCGGA	0.279
CACTACAC	-0.0195

Sequence	PBM E-score
CGTTTGGA	-0.059
CTTTGGCC	-0.0755
CGGGCATA	-0.0118
AAGCTGCG	-0.141
AATGAGAC	-0.187
TCAACCAA	0.00012
ACCTTGAT	0.104
TGATGTAA	0.152
GTGGTTCA	0.0362
CCGGGGTA	0.129
CCAGGGGG	-0.342
ACTGGCCC	-0.169
AATGTGGG	-0.155
GCGAACAA	0.246
GCGTCTCA	0.00627
AAGAGACA	-0.00829
ACCGCCCA	0.00012
AACAGGGC	-0.186
CTCAAATC	-0.224
AACCAAAG	-0.00782
CCACGGCC	0.019
CAAACCTA	-0.0405
AGCATTCC	0.052
CAACATAG	-0.177
CTTTTTTA	0.132

Given bar-delimited: part of the list above.
Sequence | PBM E-score
GCGTCTCA | 0.00627
AAGAGACA | -0.00829
ACCGCCCA | 0.00012
AACAGGGC | -0.186
CTCAAATC | -0.224

The list continues.

Sequence	PBM E-score
ACCTACTA	-0.105
TTACCGAA	0.336
TGATATCA	0.0471
ATAGGATC	-0.00942
ATTATGCG	0.171
ACTGTGAG	-0.0309
CTATCACA	0.0155
GCTTACCA	0.0715
CATACGTA	0.0443
GTGATCTA	0.16
ACCACATA	0.104
ACGCATCG	-0.102
GAACGTAC	-0.0988
CTCTTTAA	0.0738
ATAACTCA	0.0762
ACTCTTGA	-0.13
GGGCATAA	0.0125
TCAATTAA	0.196
GGAGCGAC	-0.0787
GAACTCTA	0.00847
CGTTGGGC	-0.196
AGGCTGAT	-0.161
CCAAAAAA	0.275
GCTCCCCC	-0.395
AAAAACGT	0.0244

Sequence	PBM E-score
AGGCTTAC	-0.0812
CGGCATAC	0.195
CACACGAC	-0.128
AAGTTGTG	-0.0216
ATTACACG	-0.0203
AACAAATA	0.204
AGGGTAAG	0.131
AGATGAAT	-0.145
TAAACGCA	0.0568
TCCCACGA	0.0909
CCGGACTA	0.273
GCTAGGTA	-0.0529
CCTGACGA	0.0162
CGCCCTTC	-0.0242
CTAGCCTA	-0.123
AGGACGGG	-0.319
TAGCGTAA	0.0813
CTCTGCGC	-0.0561
AGTATTGC	0.0896
GGTACAAC	0.0126
CTCATTGC	-0.00414
GAATTTCA	0.0933
CCAGGCAC	-0.201
CCCTCTCG	-0.293
CAACCAAC	-0.133

5 entries from above, comma-delimited.
Sequence,PBM E-score
CATCTGAC,-0.183
GGCATCCA,-0.179
ATGAGCAC,-0.0939
CCATGATC,-0.197
CTTTTTTA,0.132

(continued)

Sequence	PBM E-score
TTCGGAAA	0.402
ATTAGATA	0.0273
AGCCTCCA	-0.232
GGTGTCAA	-0.0555
GAACTTCA	0.0887
GAGATAGC	-0.138
AGTGCCGA	0.333
CAGAGTTC	-0.0706
CCCGCTAG	-0.0626
CGCCTCAC	0.0992
GCTAAAAC	0.0712
ATTAGGGC	-0.0844
AATATCCC	-0.0444
CAAATGCG	0.00593
ATTGAACC	-0.00854
AGCCGCAC	0.0503
AACGTCAG	-0.26
CATCGTTC	0.077
AACGCTGT	-0.0805
TGAGGGCA	-0.241
GGGTCAAC	0.0162
ACATCTAC	0.131
GGGTTCGA	-0.105
GCAGTTAA	-0.1
TCCTACCA	-0.156

Sequence	PBM E-score
ATTCCTTG	-0.0558
GAAGGAAA	0.0723
AACCACTT	-0.00261
AGCTTCCC	-0.242
TGCTACAA	0.179
CCCCTCAG	-0.364
AACCTGGA	-0.0614
CATACAAC	0.00099
CCGGATTC	0.33
CTCCTACA	-0.129
ATGCTCAC	-0.123
CCTTCGCC	-0.234
ACATCTCC	0.128
ATTCGCGG	0.238
AAGTCTAA	-0.093
CAATTTAG	0.0966
TGTAGAAA	-0.00609
CGGGTCGC	0.0996
TAGGTAAA	-0.00711
TCTCATAA	0.0404
AACAATAT	0.352
AGGGGAGC	-0.294
CACCGGAG	0.173
ACAAACCC	0.0283
GGACGGCC	-0.00088

Sequence	PBM E-score
CTAATTAA	0.0794
CTTAATGC	0.0292
AAACAATT	0.154
AAACGGTG	0.00684
TACGCCCA	-0.109
CGGTATAG	-0.044
CATCCTTC	-0.145
AGTACACG	0.00971
GCTGATTA	0.217
AGAAACGG	0.199
GACGCGTA	-0.0871
GGTAACAA	0.246
CATACTAC	0.0142
AAGTTGTC	0.142
AGTCGCCG	0.154
CAGCTCGA	-0.114
AAAATTCT	0.0787
GAAATCAC	0.256
CTGTTCCC	-0.122
CGGGGATC	0.0365
AATCATAA	0.184
TAAGTGCA	0.00668
ATGTGGTC	-0.167
CCGCTACC	0.0517
AGACACTA	0.2

Sequence	PBM E-score
ACCCAAAT	-0.00836
GATAGGGA	-0.179
GGATGCTA	-0.0651
ATGTCCCA	-0.24
ATTCCAAG	0.0923
TACCTGCA	-0.0159
CACTCGGA	0.294
ACCCCGCT	-0.094
GATAGATC	0.0513
GAGAAAGC	0.0414
CCAGTTGA	-0.125
ACTCCTGA	-0.085
AACCACGT	-0.148
ATAATTTC	0.141
GCTCCTCA	-0.175
AGTCAGTA	0.0215
GCCAAACC	-0.0969
GTGAGACA	-0.13
ATCCTATC	-0.0475
ATAGGAAA	0.174
AGTCCTTC	-0.202
CCGAAGAA	0.345
ACGAACCC	-0.154
TATACTCA	0.087
GCCGGCCA	0.348

Sequence	PBM E-score
ACTCAACC	0.0685
GAGCTAAC	0.0495
AGTCAGTC	-0.337
AATTCCGG	0.387
ACCCCAAT	-0.272
CGATGCCG	0.234
CCCATCCA	-0.0987
CAAAGCAA	0.197
CGAGCGGC	0.279
CAAGCTGC	0.00448
CCAAGGAC	-0.0257
CAATAACA	-0.0893
AGTGCTAC	-0.226
AGAATTGC	-0.134
TGAGCAAA	0.0568
AGAACGCA	-0.0916
TCGATCAA	0.0787
CTCGCGTC	-0.19
CAATATAC	-0.0255
AGTTGACA	0.0221
ACCGCATA	0.147
CCGGCGTC	0.271
ACACCGAT	-0.0483
GCTCATCA	-0.0178
CCTACATC	-0.0564

Sequence	PBM E-score
ACAGACAC	0.0795
GCCATCCC	-0.0907
CGTGCTTA	0.106
ACTATTCT	-0.0239
TTAGATAA	0.0522
CGTGCATA	-0.0313
ATGGTCCA	-0.0752
ATAAGGTG	0.184
GACATCGC	-0.0693
TCGGACAA	0.378
GAATTATC	0.0532
CCCCATCC	-0.106
CACAAAAC	0.105
CTCGTATC	0.00092
AATCACGA	-0.0544
CGGTTTCC	0.298
CAACAGTC	0.0214
CCCTAGGA	-0.15
AGGTACAT	-0.323

Individual results from above:
For PBM E-score, GCGTCTCA shows 0.00627
For PBM E-score, AGCTATAA shows -0.0676
For PBM E-score, TAGCGTAA shows 0.0813
